Measurements published in PubChem BioAssay AID2685 (National Center for Advancing Translational Sciences (NCATS), 2010).
The other results are listed elsewhere or left out. Shown are side measurements of this screen, not its main read-out; they come without a call. Compounds called inactive in the main read-out are mostly missing here. The note in brackets gives the kind of curve behind each potency; many fits are weak.

Assay: qHTS Assay for Lipid Storage Modulators in Drosophila S3 Cells;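 on cell number change: cells counted by Cell Tracker Red CMTPX staining in the red channel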
Conditions: BODIPY lipid droplet fluorescence, 18-24 h; for cell number change: measured here: cell count max response, cells fed with added oleic acid
Procedure, shortened: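 Drosophila S3 cells got compounds at several concentrations plus oleic acid (400 uM solution). Laser-scanning cytometry with 488 nm excitation read lipid droplets at 500-530 nm and cells at 575-640 nm. Percent activity was relative to 20 uM Triacsin C.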

[1] = measured here: lipid fluorescence (Fed channel) AC50, cells fed with added oleic acid
[2] = measured here: cell number channel AC50, cells fed with added oleic acid

| Compound | cell number change | AC50 [1] | AC50 [2] |
| --- | --- | --- | --- |
| C[C@H](NC(=O)[C@@H]1Cc2ccccc2CN1)C(=O)Nc1ccc2c(c1)OCCO2 | 15.8% | 0.326 µM [rising, partial curve, poor fit] |  |
| O=C(NCCC(=O)N1CCN(c2cccc(Cl)c2)CC1)c1ccc(Br)cc1 | -14.9% | 4.11 µM [falling, partial curve, poor fit] |  |
| O=C(CSc1nnc(Cc2ccccc2)n1Cc1ccco1)NC1CCCC1 | 29% |  |  |
| O=C(N/N=C/C=C/c1ccccc1)c1n[nH]c2c1CCC2 | 16.6% |  |  |
| COc1cc2ccccc2cc1C(=O)N1CCN(C)CC1 | 12.2% |  |  |
| O=C(O)c1cccc(Cn2c(Cl)c(/C=N/NC(=O)c3cccc(O)c3)sc2=O)c1 | -8.52% | 0.731 µM [falling, full curve] |  |
| CCN(CC)CCNC(=O)Cn1nc(Cc2ccccc2)c2ccccc2c1=O | 0.503% | 6.51 µM [falling, single point] |  |
| Cc1ccc(S(=O)(=O)N2CCOC2CNC(=O)C(=O)NCCN(C)C)cc1 (stereo unspecified) | -2.35% |  |  |
| Cc1ccccc1C(=O)NNC(=O)C1CCN(c2ncccn2)CC1 | -1.25% | 0.103 µM [rising, single point] |  |
| CCn1cc(CNCc2cn(-c3ccccc3C)nc2-c2ccc(OC)c(F)c2)cn1 | 3.68% |  |  |
| COc1cccc(NC(=O)NNC(=O)CCc2ccc(O)c(O)c2)c1 | 42.9% | 25.9 µM [rising, single point] | 29.1 µM [rising, single point] |
| C=C(C)CSc1nc2nc(C)c(Br)cc2[nH]1 | 30% | 4.61 µM [falling, partial curve, poor fit] |  |
| COC(CNC(=O)c1ccc2c(c1)ncn2-c1cccc(C)c1)OC | 2.13% | 11.6 µM [rising, partial curve] |  |
| O=C1NC2(C=Cc3c(ccc4ccccc34)O2)Oc2ccccc21 (stereo unspecified) | 3.6% |  | 3.66 µM [rising, single point] |
| CCn1c2ccccc2c2cc(NC(=O)c3cc(OC)cc(OC)c3)ccc21 | 12.1% | 1.46 µM [rising, partial curve] | 1.16 µM [rising, partial curve] |
| NC(=O)c1cccnc1Oc1ccccc1 | -8.72% |  | 6.51 µM [falling, single point] |
| CCN(CC)S(=O)(=O)c1ccc(C(=O)NCCN2C(=O)S/C(=C\c3cccnc3)C2=O)cc1 | 24.2% | 23.1 µM [rising, single point] |  |
| Cc1noc2c1C(c1ccc(N(C)C)cc1)C1=C(CC(C)(C)CC1=O)N2 (stereo unspecified) | 37.4% |  | 25.9 µM [rising, single point] |
| Cc1nc(-c2nc(-c3c(C(=O)NNC(=O)c4ccc(Cl)cc4)noc3C)cs2)cs1 | 5.83% | 29.1 µM [rising, single point] |  |
| CCN(CC)C(=O)c1nc[nH]c1C(=O)N(C)Cc1ccccc1 | 19.4% | 6.51 µM [falling, single point] | 3.26 µM [falling, single point] |

2 of these compounds in a different format.
COC(CNC(=O)c1ccc2c(c1)ncn2-c1cccc(C)c1)OC
  cell number change: 2.13%; AC50 [1]: 11.6 µM [rising, partial curve]
O=C1NC2(C=Cc3c(ccc4ccccc34)O2)Oc2ccccc21 (stereo unspecified)
  cell number change: 3.6%; AC50 [2]: 3.66 µM [rising, single point]

The list goes on:

| Compound | cell number change | AC50 [1] | AC50 [2] |
| --- | --- | --- | --- |
| Cc1[nH]c2c(C)cccc2c1CCNC(=O)c1ccc2c(c1[N+](=O)[O-])C(=O)c1ccccc1C2=O | -54.8% | 29.1 µM [falling, single point] | 20.6 µM [falling, partial curve] |
| Cc1onc(-c2ccccc2Cl)c1C(=O)NNC(=O)c1ccc(F)cc1 |  | 0.116 µM [falling, single point] |  |
| Cc1ccc2c(c1)N(CC(=O)N1CCC(C)CC1)C(=O)c1cccnc1O2 |  | 0.58 µM [rising, single point] |  |
| Cc1ccccc1C(=O)NCc1nnc(SCC(=O)N2CCN(c3ccccc3)CC2)n1C | 32.6% |  | 7.31 µM [rising, partial curve, poor fit] |
| CCC(C)NS(=O)(=O)c1ccc(N)cc1 (stereo unspecified) | -47.3% | 0.00731 µM [falling, full curve] | 0.184 µM [falling, full curve, poor fit] |
| O=c1c(Cc2ccc(F)cc2)c(O)ccn1CCc1cnc[nH]1 | 45.6% | 6.51 µM [rising, single point] |  |
| O=C(Nc1ccncc1)c1ccc(N2CCCC2=O)cc1 | 14.7% | 29.1 µM [falling, single point] |  |
| COc1cc2cc(CN(Cc3cccnc3)C(=O)Nc3ccccc3)c(=O)[nH]c2cc1OC | -19.8% | 1.84 µM [falling, full curve, poor fit] |  |
| CC1(c2ccccc2Cl)NC(=O)N(CC(=O)Nc2ccccc2OC(F)F)C1=O (stereo unspecified) | -38.9% |  | 6.51 µM [falling, partial curve, poor fit] |
| CCOC(=O)c1[nH]c2ccc(Cl)cc2c1NC(=O)/C=C/c1ccc2c(c1)OCO2 | -30.4% |  | 5.17 µM [falling, partial curve] |
| COC(=O)c1ccc(NC(=O)Cn2nc(C)c3ccccc3c2=O)cc1 | 14% | 29.1 µM [rising, single point] | 0.259 µM [rising, full curve, poor fit] |
| COc1ccc(C(=O)COC(=O)CCNS(=O)(=O)c2ccccc2)c(OC)c1 | 13.3% | 0.731 µM [falling, single point] |  |
| CC(=O)Nc1nc(C)cs1 | -53.7% | 0.517 µM [falling, full curve, poor fit] | 0.731 µM [falling, full curve] |
| Cc1ccc(NC(=O)CN(C)S(=O)(=O)c2cccc3cccnc23)cc1 | -2.03% |  |  |
| O=C(CSC1=NC(=O)C(c2ccccc2)C(=O)N1)Nc1ccccc1[N+](=O)[O-] (stereo unspecified) | -27.7% | 16.4 µM [falling, single point] |  |
| CCOC(=O)Cc1cnc(NC(=O)c2ccccc2)s1 | -11.1% |  |  |
| O=C(Nc1ccc(Br)cc1)C1CCCC1 | -13% | 29.1 µM [falling, single point] |  |
| Cc1cc(NC(=O)c2cc(-c3ccccn3)nc3ccc(Br)cc23)no1 |  | 11.6 µM [rising, single point] |  |
| O=C(Nc1ccccc1)Nc1ccc2snnc2c1 | -65.3% | 25.9 µM [falling, partial curve] | 23.1 µM [falling, partial curve] |
